From article PMC4684289
These are yes or no findings as the source states them, for the method shown. Binding seen in cells or lysates may run through a third protein. Some entries that bind do so weakly or less than the wild type. Where a sequence is shown, tags or fusion partners need not be part of it.

The chains behind the UniProt entries cited, without tags or fusion partners.
UniProt Q9UQ84: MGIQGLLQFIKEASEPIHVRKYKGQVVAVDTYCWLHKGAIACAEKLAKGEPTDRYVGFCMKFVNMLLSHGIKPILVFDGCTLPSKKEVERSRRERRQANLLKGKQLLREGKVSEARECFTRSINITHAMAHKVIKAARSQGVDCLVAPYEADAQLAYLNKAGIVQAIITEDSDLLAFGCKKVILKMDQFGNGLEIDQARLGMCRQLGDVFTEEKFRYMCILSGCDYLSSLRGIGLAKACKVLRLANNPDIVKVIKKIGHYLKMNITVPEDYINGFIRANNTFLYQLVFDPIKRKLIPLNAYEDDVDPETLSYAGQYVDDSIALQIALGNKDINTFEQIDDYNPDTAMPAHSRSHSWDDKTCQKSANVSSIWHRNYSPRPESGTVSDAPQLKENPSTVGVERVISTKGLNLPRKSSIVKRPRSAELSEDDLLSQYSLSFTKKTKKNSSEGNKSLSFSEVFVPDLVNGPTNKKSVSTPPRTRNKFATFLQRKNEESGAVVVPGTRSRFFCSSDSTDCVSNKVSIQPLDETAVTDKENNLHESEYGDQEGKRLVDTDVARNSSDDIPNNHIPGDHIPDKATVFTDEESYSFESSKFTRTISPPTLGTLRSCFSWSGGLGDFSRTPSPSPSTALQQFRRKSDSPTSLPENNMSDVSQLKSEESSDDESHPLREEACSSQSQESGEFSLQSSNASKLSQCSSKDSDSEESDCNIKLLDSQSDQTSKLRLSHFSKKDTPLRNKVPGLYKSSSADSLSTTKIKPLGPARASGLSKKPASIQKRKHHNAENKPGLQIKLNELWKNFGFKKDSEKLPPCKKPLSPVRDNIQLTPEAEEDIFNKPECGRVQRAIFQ
UniProt P54132: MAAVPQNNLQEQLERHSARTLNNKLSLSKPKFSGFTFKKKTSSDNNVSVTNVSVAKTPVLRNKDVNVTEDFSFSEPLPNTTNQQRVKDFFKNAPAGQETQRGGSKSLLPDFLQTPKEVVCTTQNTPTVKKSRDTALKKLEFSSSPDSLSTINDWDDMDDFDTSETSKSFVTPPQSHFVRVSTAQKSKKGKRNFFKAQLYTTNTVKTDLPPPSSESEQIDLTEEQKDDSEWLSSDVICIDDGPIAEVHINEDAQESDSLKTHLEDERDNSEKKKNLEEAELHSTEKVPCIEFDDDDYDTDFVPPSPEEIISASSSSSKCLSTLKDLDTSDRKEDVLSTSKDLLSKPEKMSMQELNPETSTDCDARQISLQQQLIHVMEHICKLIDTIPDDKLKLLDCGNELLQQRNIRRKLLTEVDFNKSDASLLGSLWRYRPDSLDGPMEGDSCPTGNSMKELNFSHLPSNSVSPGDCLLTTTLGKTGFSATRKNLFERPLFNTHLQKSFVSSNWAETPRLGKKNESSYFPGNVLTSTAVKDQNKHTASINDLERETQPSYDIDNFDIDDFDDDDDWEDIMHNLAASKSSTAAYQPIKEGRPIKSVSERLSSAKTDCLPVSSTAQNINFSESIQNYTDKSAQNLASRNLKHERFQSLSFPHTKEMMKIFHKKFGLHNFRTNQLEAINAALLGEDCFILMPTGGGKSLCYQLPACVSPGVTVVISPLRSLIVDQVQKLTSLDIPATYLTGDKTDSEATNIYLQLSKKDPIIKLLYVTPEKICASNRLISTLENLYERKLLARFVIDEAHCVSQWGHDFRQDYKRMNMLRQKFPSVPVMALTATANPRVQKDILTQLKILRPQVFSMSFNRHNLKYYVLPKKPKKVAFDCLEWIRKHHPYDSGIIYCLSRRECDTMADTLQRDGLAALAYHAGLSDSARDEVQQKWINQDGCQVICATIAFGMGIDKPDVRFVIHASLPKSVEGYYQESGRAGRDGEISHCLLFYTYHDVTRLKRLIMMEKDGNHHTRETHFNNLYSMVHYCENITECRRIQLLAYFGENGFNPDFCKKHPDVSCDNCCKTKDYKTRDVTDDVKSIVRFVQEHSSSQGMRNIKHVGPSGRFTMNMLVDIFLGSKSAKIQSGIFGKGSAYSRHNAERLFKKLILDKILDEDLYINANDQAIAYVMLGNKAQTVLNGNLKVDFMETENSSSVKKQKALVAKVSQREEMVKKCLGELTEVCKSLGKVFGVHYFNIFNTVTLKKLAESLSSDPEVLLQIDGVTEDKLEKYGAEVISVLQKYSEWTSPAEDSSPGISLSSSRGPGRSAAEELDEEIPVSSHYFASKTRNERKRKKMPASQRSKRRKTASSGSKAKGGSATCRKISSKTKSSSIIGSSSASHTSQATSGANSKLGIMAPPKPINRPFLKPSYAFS
UniProt P15927: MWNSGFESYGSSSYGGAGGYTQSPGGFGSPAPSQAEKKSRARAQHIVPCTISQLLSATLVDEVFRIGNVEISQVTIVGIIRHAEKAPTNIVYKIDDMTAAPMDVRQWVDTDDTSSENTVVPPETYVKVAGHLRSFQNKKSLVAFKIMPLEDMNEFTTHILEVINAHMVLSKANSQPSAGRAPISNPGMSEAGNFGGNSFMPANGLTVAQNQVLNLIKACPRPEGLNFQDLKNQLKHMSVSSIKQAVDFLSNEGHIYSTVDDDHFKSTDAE

T1: V5-tagged EEPD1 (Exonuclease/Endonuclease/Phosphatase Domain-1) (human) (UniProt Q7L9B9)
T1 sequence: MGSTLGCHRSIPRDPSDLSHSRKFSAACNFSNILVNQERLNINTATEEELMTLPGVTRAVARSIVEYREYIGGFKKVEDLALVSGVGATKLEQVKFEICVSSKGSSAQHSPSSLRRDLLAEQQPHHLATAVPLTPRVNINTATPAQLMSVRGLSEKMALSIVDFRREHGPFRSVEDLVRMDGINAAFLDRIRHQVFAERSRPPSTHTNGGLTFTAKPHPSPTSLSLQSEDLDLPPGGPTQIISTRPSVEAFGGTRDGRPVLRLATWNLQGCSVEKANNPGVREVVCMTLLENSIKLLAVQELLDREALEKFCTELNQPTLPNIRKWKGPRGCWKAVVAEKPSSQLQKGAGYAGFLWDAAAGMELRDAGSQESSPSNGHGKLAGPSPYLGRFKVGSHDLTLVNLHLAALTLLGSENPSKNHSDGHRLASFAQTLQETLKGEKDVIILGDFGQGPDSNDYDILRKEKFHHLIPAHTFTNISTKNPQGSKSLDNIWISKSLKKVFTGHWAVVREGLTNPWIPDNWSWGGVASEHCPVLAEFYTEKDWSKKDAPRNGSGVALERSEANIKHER

B1: Dna2 (protein, UniProt P51530 1-1060)
chain: MEQLNELELLMEKSFWEEAELPAELFQKKVVASFPRTVLSTGMDNRYLVLAVNTVQNKEGNCEKRLVITASQSLENKELCILRNDWCSVPVEPGDIIHLEGDCTSDTWIIDKDFGYLILYPDMLISGTSIASSIRCMRRAVLSETFRSSDPATRQMLIGTVLHEVFQKAINNSFAPEKLQELAFQTIQEIRHLKEMYRLNLSQDEIKQEVEDYLPSFCKWAGDFMHKNTSTDFPQMQLSLPSDNSKDNSTCNIEVVKPMDIEESIWSPRFGLKGKIDVTVGVKIHRGYKTKYKIMPLELKTGKESNSIEHRSQVVLYTLLSQERRADPEAGLLLYLKTGQMYPVPANHLDKRELLKLRNQMAFSLFHRISKSATRQKTQLASLPQIIEEEKTCKYCSQIGNCALYSRAVEQQMDCSSVPIVMLPKIEEETQHLKQTHLEYFSLWCLMLTLESQSKDNKKNHQNIWLMPASEMEKSGSCIGNLIRMEHVKIVCDGQYLHNFQCKHGAIPVTNLMAGDRVIVSGEERSLFALSRGYVKEINMTTVTCLLDRNLSVLPESTLFRLDQEEKNCDIDTPLGNLSKLMENTFVSKKLRDLIIDFREPQFISYLSSVLPHDAKDTVACILKGLNKPQRQAMKKVLLSKDYTLIVGMPGTGKTTTICTLVRILYACGFSVLLTSYTHSAVDNILLKLAKFKIGFLRLGQIQKVHPAIQQFTEQEICRSKSIKSLALLEELYNSQLIVATTCMGINHPIFSRKIFDFCIVDEASQISQPICLGPLFFSRRFVLVGDHQQLPPLVLNREARALGMSESLFKRLEQNKSAVVQLTVQYRMNSKIMSLSNKLTYEGKLECGSDKVANAVINLRHFKDVKLELEFYADYSDNPWLMGVFEPNNPVCFLNTDKVPAPEQVEKGGVSNVTEAKLIVFLTSIFVKAGCSPSDIGIIAPYRQQLKIINDLLARSIGMVEVNTVDKYQGRDKSIVLVSFVRSNKDGTVGELLKDWRRLNVAITRAKHKLILLGCVPSLNCYPPLEKLLNHLNSEKLIIDLPSREHESLCHILGDFQRE

What follows are molecules tested against T1, V5-tagged EEPD1 (Exonuclease/Endonuclease/Phosphatase Domain-1) (human) (assay: co-IP; V5 mouse antibody cross-linked to protein A/G magnetic beads, incubated with lysate (0.8-1.2 mg) of HEK-293 cells overexpressing V5-tagged EEPD1, 1 h at RT; in the presence of DNase; with or without replication stress).
In the case of Exo1 (from UniProt Q9UQ84 1-846), the binding is reported as “binds”. With BLM (from UniProt P54132 1-1417) the binding was “binds”. In the case of RPA32 (from UniProt P15927 1-270), the binding is reported as “binds”. With B1 the binding was “no binding”.
